From article PMC7306619 come the findings set out here.

Assay [1] concerns the target GST‐OsIAA13 (Oryza sativa). The assay can be described thus: pull-down; GST fusion or GST from bacterial lysate immobilised on GSH-Sepharose 4B and washed; about 4 ug pre-cleared bacterial extract of the 6xHis protein, 1 h at 4 C in EB (150 mM NaCl, 100 mM Tris-Cl pH 7.5, 0.5% NP40, protease inhibitor, MG132), with 5 uM IAA and 50 uM MG132 (for OsDi19-5 also without IAA); anti-His immunoblot; only the target purified.

The target in assay [2] is OsIAA13/cYFPC1 (Oryza sativa). The assay can be described thus: split reporter; split EYFP (pSITE-cEYFPC1 and pSITE-nEYFPC1) co-bombarded into onion epidermal cells; confocal microscopy, fluorescence in the nucleus.

No constants are given. Whether binding was seen depends on the method and setting. In cells and extracts the contact can be indirect. A result given as binding can be weak or reduced; the word gives no strength. For some assays here: Sequences can lack the tags named with a protein.

B1: 6xHis‐OsDi19‐5 (protein, UniProt Q5JME8 1-202)
chain: MEVEASYSYGFLPSGRHQPYAPPPPHPAEEGELWEYFPCPFCYIEVEVPFICNHLQEEHCFDTRNAVCPLCADNIGRDMGAHFRVQHSHLLKRRKPSRPSSSWPTPSNNSDPYFEGPPQYMMNNRTYQDPAPDPLLSQFICSMAQTDTNSDNTNTEIAVSAVSHDQRLSQRVTLTDDASKLELKERLQRIEFVKEIIMSTIL
As to B1, in assay [1], the binding result is given as “binds”.

B2: OsDi19‐5/nYFPC1 (protein, UniProt Q5JME8 1-202)
chain: MEVEASYSYGFLPSGRHQPYAPPPPHPAEEGELWEYFPCPFCYIEVEVPFICNHLQEEHCFDTRNAVCPLCADNIGRDMGAHFRVQHSHLLKRRKPSRPSSSWPTPSNNSDPYFEGPPQYMMNNRTYQDPAPDPLLSQFICSMAQTDTNSDNTNTEIAVSAVSHDQRLSQRVTLTDDASKLELKERLQRIEFVKEIIMSTIL
In the case of B2, in assay [2], the binding entry is listed as “binds”.
